Measurements reported in article PMC7251097, “Aspartate/asparagine-β-hydroxylase: a high-throughput mass spectrometric assay for discovery of small molecule inhibitors” (Scientific Reports, 2020).
Structures can show the parent of a compound that is named as a salt. Where two headings read alike, the source gives them in different places. Each block holds one compound with its values, some of them ahead of it.

Target: T1, His6-AspH315–758 (human aspartate/asparagine-β-hydroxylase, AspH) (Homo sapiens, UniProt Q12797)
T1 construct: N-Terminally His6-tagged human AspH315–758 (His6-AspH315–758) was produced in E. coli BL21 (DE3) cells; made in house; host or cells: E. coli BL21 (DE3), pET-28a(+) vector
T1 sequence (Q12797 315-758): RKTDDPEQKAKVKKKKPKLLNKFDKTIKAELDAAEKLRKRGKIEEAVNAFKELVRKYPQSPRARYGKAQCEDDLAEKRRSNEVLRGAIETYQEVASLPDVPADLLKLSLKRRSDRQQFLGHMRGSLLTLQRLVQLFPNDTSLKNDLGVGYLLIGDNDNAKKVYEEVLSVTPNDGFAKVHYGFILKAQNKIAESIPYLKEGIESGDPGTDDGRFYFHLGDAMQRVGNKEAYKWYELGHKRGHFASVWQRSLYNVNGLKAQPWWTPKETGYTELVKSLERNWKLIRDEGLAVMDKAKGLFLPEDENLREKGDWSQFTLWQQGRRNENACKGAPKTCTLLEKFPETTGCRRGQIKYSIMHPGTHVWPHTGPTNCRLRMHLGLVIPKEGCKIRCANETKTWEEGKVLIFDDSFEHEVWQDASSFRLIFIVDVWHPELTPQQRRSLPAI
Test: SPE-MS AspH inhibition assay (LOPAC screen at fixed 20 μM and IC50 dose-response), hydroxylation of cyclic peptide hFX-CP101–119
Format: biochemical

[1] = LOPAC compound at fixed 20 uM, substrate conversion, plate 1
[2] = LOPAC compound at 20uM, conversion of substrate peptide
[3] = LOPAC compound at 20uM, plate 3, conversion of substrate peptide

SMILES: CC[N+](CC)(CC)CC(=O)Nc1c(C)cccc1C.[Br-]
Plate 3 (% conversion): 38.04%

SMILES: CN[C@H](CC(C)C)C(=O)N[C@H]1C(=O)N[C@@H](CC(N)=O)C(=O)N[C@H]2C(=O)N[C@H]3C(=O)N[C@H](C(=O)N[C@H](C(=O)O)c4cc(O)cc(O)c4-c4cc3ccc4O)[C@H](O)c3ccc(c(Cl)c3)Oc3cc2cc(c3O[C@@H]2O[C@H](CO)[C@@H](O)[C@H](O)[C@H]2O[C@H]2C[C@](C)(N)[C@H](O)[C@H](C)O2)Oc2ccc(cc2Cl)[C@H]1O.Cl
% conversion: 26.47%

SMILES: Br.CN1[C@@H]2CC(OC(=O)[C@H](CO)c3ccccc3)C[C@H]1[C@@H]1O[C@@H]12 (single isomer, unassigned; (-)) [(-)-Scopolamine hydrobromide]
% conversion: 39.78%

SMILES: CCCC[N+]1(C)[C@@H]2C[C@@H](OC(=O)[C@H](CO)c3ccccc3)C[C@H]1[C@@H]1O[C@@H]12.[Br-] (single isomer, unassigned; (-)) [(-)-Scopolamine,n-Butyl-, bromide]
% conversion: 32.88%

SMILES: CN1[C@@H]2CC[C@H]1C[C@@H](OC(=O)C(CO)c1ccccc1)C2 (stereo partly shown) [Atropine sulfate]
Plate 1 (% conversion): 34.94%

SMILES: NS(=O)(=O)c1cc(C(=O)O)c(NCc2ccco2)cc1Cl [Furosemide]
Plate 2 (% conversion) [2]: 35.06%

SMILES: Cc1cnc(C(=O)NCCc2ccc(S(=O)(=O)NC(=O)NC3CCCCC3)cc2)cn1 [Glipizide]
Plate 2 (% conversion) [2]: 38.93%

SMILES: CCN(CC)CC(=O)Nc1c(C)cccc1C [Lidocaine hydrochloride]
Plate 3 (% conversion) [3]: 40.90%

Other lines, results leading:

Plate 1 (% conversion) [1]: 25.09%
SMILES: CCCCc1oc2ccccc2c1C(=O)c1cc(I)c(OCCN(CC)CC)c(I)c1 [Amiodarone hydrochloride]

Plate 1 (% conversion) [1]: 35.35%
Plate 5 (% conversion) (plate 5 (Pfitzer), test compounds at fixed 20 μM, mean conversion DMSO 32.88): 30.47%
SMILES: CC(C)c1c(C(=O)Nc2ccccc2)c(-c2ccccc2)c(-c2ccc(F)cc2)n1CC[C@@H](O)C[C@@H](O)CC(=O)O [Atorvastatin calcium salt trihydrate]

Plate 1 (% conversion) [1]: 31.01%
SMILES: CC1=C(C(=O)O)N2C(=O)[C@@H](NC(=O)[C@H](N)c3ccccc3)[C@H]2SC1.O [Cephalexin hydrate]

Plate 2 (% conversion) [2]: 37.89%
SMILES: O=C(O)COCCN1CCN(C(c2ccccc2)c2ccc(Cl)cc2)CC1 (stereo not shown) [Cetirizine dihydrochloride]

Plate 2 (% conversion) [2]: 38.54%
SMILES: CN(C)CCOC(c1ccccc1)c1ccccc1 [Diphenhydramine hydrochloride]

Plate 3 (% conversion) [3]: 39.31%
SMILES: CCOC(=O)N1CCC(=C2c3ccc(Cl)cc3CCc3cccnc32)CC1 [Loratadine]

Plate 3 (% conversion) [3]: 40.93%
SMILES: CCCNCC(O)COc1ccccc1C(=O)CCc1ccccc1 (stereo not shown) [Propafenone hydrochloride]
